# From paper PMC12040169 (PLOS Biology, 2025)
# Some of the results follow.
# Tested on: T1, CTL2-GFP (C. trachomatis L2/434/Bu, GFP-expressing)
# T1 construct: L2/434/Bu, GFP-expressing
# Design: species or system HeLa; Intracellular C. trachomatis growth in HeLa cells, bulk GFP fluorescence relative to DMSO
# Conditions: bulk GFP, single well; 28.5 h, 10 µM; inhibitor
row,Compound,% of control remaining
1,COc1ccc(/C=C(\C#N)c2nc3ccccc3n2Cc2c(C)ccc3ccccc23)cc1 [CBK262960],101.308%
2,C/C(CC(=O)Nc1ccc(C)cc1)=N\NC(=O)c1cccc(O)c1 [CBK262618],82.2174%
3,CCOC(=O)c1[nH]c2ccccc2c1NS(=O)(=O)Cc1ccccc1[N+](=O)[O-] [CBK047426],131.899%
4,O=C(NCc1ccccc1)[C@H]1CN2CCC1C[C@@H]2Cn1cc(-c2ccc(F)cc2)nn1 (stereo partly shown) [CBK288736],121.966%
5,O=C(CSc1ccccn1)Nc1ccc(CN2CCOCC2)cc1 [CBK306072],131.781%
6,COc1ccc(C(NC(=O)C2CCN(Cc3ccc(OC)c(OC)c3)CC2)c2ccccc2C)cn1 (stereo not shown) [CBK081452T],124.789%
7,COCCOc1ncccc1OCc1ccccc1 [CBK001456],107.853%
8,CC(C)(C)OC(=O)N1CCC(NCCc2ccccn2)C1 (stereo not shown) [CBK304839],101.965%
9,O=C(COc1ccc(Cl)cc1Cl)OCCNC1=NS(=O)(=O)c2ccccc21 [CBK264905],114.489%
10,CCCn1cc(CN2C3CCC2CC(O)(c2ccccc2F)C3)cn1 (stereo not shown) [CBK282664],139.375%
11,O=c1[nH]cccc1-c1noc(-c2cnccn2)n1 [CBK288538],108.487%
12,Oc1c(C(c2ccccc2)N2CCc3ccccc3C2)sc2ncnn12 (stereo not shown) [CBK287612],113.918%
13,OCc1ccc(OCCCOc2cccc3cccnc23)cc1 [CBK269674],113.698%
14,O=C1CC(NCc2ccccc2)C(=O)N1c1ccc(N2C(=O)CC(NCc3ccccc3)C2=O)cc1 (stereo not shown) [CBK263963],100%
15,CCOc1ccc(S(=O)(=O)N2CCSC2c2ccc(OC)c([N+](=O)[O-])c2)cc1 (stereo not shown) [CBK263293],80.4167%
16,COc1cc2c(cc1OC)CN(Cc1cc(=O)[nH]c(=O)[nH]1)CC2 [CBK126393],100%
17,O=C(CCn1cnc2ccccc2c1=O)Nc1cccc(C(F)(F)F)c1 [CBK267687],125.598%
18,CSc1ncc(Cl)c(C(=O)Nc2sc3c(c2C(=O)NCC2CCCO2)CCC3)n1 (stereo not shown) [CBK268959],121.019%
19,CCc1nnc(NS(=O)(=O)c2ccc(NC(=O)c3ccc([N+](=O)[O-])cc3)cc2)s1 [CBK045483],90.4179%
20,O=C(CCCOc1ccccc1)N1CCN(c2cccc(Cl)c2)CC1 [CBK304354],108.722%
21,COc1ccccc1C(=O)NC1CN2CCC1CC2 (stereo not shown) [CBK018475C],112.713%
22,Cn1cc(-c2nc(C(=O)NCC3CCN(c4ccccc4)C3)cs2)cn1 (stereo not shown) [CBK305633],121.671%
23,O=c1ccccn1COCc1ccccc1 [CBK006438],119.608%
24,CC(C)C(=O)Nc1cc2cccnc2nc1-c1ccc2c(c1)OCCCO2 [CBK073658],155.866%
25,O=C(O)/C(=N\c1cccc2ccccc12)c1ccccc1 [CBK262224],26.0107%

# Three neighbouring compounds out of the list so far, quoted:
row,Compound,% of control remaining
2,C/C(CC(=O)Nc1ccc(C)cc1)=N\NC(=O)c1cccc(O)c1 [CBK262618],82.2174%
3,CCOC(=O)c1[nH]c2ccccc2c1NS(=O)(=O)Cc1ccccc1[N+](=O)[O-] [CBK047426],131.899%
4,O=C(NCc1ccccc1)[C@H]1CN2CCC1C[C@@H]2Cn1cc(-c2ccc(F)cc2)nn1 (stereo partly shown) [CBK288736],121.966%

# (list continues)

row,Compound,% of control remaining
1,O=c1[nH]c2cccc3c2n1C[C@H](NCCc1ccccc1)C3 [CBK016688C],56.3977%
2,c1csc(C2Nc3ccccc3C3=NCCCN32)c1 (stereo not shown) [CBK284489],101.979%
3,COc1cc(/C=C/C(=O)O)cc(S(=O)(=O)N2CCc3ccccc3C2)c1OC [CBK264406],100%
4,N#Cc1ccc(-c2csc(NC(=O)c3ccc(Cl)s3)n2)cc1 [CBK287321],102.563%
5,Cc1nc2ccc(C(=O)N3CCN(C)CC3)cn2c1N(C)C(=O)CCc1ccccc1 [CBK146786],123.355%
6,COc1c(Cl)cc(Cl)cc1CNCCCN1CCOCC1 [CBK278165C],156.954%
7,COC(=O)c1sccc1-c1ccc(C2C3=C(CCCC3=O)NC3=C2C(=O)CCC3)o1 [CBK005748],132.194%
8,CCNc1nccnc1-c1ccncc1 [CBK088586],103.437%
9,CC(C)(C)C1=CC2=NC3(CCC3)C3C[C@](O)(Cc4ccccc4)[C@@H](O)[C@@H]3N2O1 (stereo partly shown) [CBK303261],133.073%
10,Cc1ccn(CCNC(=O)Cn2c3c(c4ccccc42)CCC3)n1 [CBK282708],128.352%
11,COc1ccc([N+](=O)[O-])cc1N(CC(=O)Nc1cccc2ccccc12)S(C)(=O)=O [CBK268197],95.2284%
12,O=C(Nc1cc(Oc2cccnc2)cc([N+](=O)[O-])c1)c1cc2nc(-c3ccccc3)cc(-c3ccccc3)n2n1 [CBK262554],100.826%
13,CCC(=O)N1CCC(c2nc(C3CCCC3)no2)C1 (stereo not shown) [CBK285458],115.722%
14,O=C(O)CC1(CNC(=O)Cn2nc(-c3ccccc3)ccc2=O)CCCCC1 [CBK286866],133.098%
15,COCCC(=O)NC(Cc1ccsc1)c1nc(C)cs1 (stereo not shown) [CBK282830],115.12%
16,CCOc1ccc(-c2cncc(N3CCC(C(=O)O)CC3)n2)cc1 [CBK065870],182.217%
17,CCN1CCC(CC(=O)N2CCC(c3ccccc3)C2)CC1 (stereo not shown) [CBK281958],161.937%
18,Cc1nc(C)n(CC2CCCN2Cc2cn3ccccc3c2C#N)n1 (stereo not shown) [CBK304006],126.302%
19,Cn1c(C(=O)NCCN2CCOCC2)cc2oc(-c3ccccc3)nc2c1=O [CBK056726T],143.368%
20,CC(NC(=O)CC(C)n1cccn1)c1cc2cc(Cl)ccc2o1 (stereo not shown) [CBK281432],122.645%
21,Cc1nn(C)cc1C(C)NC(=O)C1(c2ccccc2F)CCOCC1 (stereo not shown) [CBK281594],130.53%
22,CN(CC1CCCC1)c1nccc(N2CCN[C@H]3CS(=O)(=O)C[C@H]32)n1 [CBK307060],189.4%
23,Cc1cc2c(cc3c(=O)n(CC(=O)N4CCCCC4)nc(C)n32)s1 [CBK284063],135.805%
24,O=[N+]([O-])c1ccc(Cc2cc[n+](-c3nc4ccccc4nc3[N-]S(=O)(=O)c3ccc([N+](=O)[O-])cc3)cc2)cc1 [CBK301201],94.708%
